PubChem BioAssay AID652243 – Drosophila RNAi Screening Center – 2013
Test: 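Fly genes required for human androgen receptor driven transcription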 (primary screen). Cell system: Drosophila S2R+ cells. Reagent: long dsRNA against Drosophila genes. Time to read-out: 72 h (48 h, then 24 h hormone). Challenge: synthetic androgen R1881 at 10 nM for 24 h. Measured: 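Firefly light from an androgen-responsive reporter and Renilla control light per well, raw and unnormalised, for each of two replicates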. Scale: firefly reporter light: higher = more light from androgen-responsive reporter; Renilla control light: higher = more constitutive control signal (cell number, transfection). Call rule: 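Across duplicate plates, a knock-down whose log firefly/Renilla ratio shifted a set fold down or up from the GFP/LacZ control mean was a hit; the downward cut appears as both 1.5 and 3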. Calls: active = hit: reporter lowered or raised; inactive = no hit.
The screen tested about 24,000 reagents; below is a random part of those that have a named target and a result. In the full data, 246 (1%) were called active. 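Plates not normalised; calls are printed but the firefly/Renilla ratio behind them is not deposited; fold cut for lowering reported inconsistently.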 Raw values are not corrected between plates. Unmarked entries are inactive. Not stated in the record: the amount of reagent.

| gene | DRSC id | firefly reporter light, replicate 1 | firefly reporter light, replicate 2 | Renilla control light, replicate 1 | Renilla control light, replicate 2 |
| --- | --- | --- | --- | --- | --- |
| TwdlF (TweedleF) | DRSC12225 | 24588 | 42037 | 3.11e5 | 2.70e5 |
| TwdlF (TweedleF) | DRSC27258 | 3.96e5 | 3.74e5 | 7.25e5 | 8.69e5 |
| Jon25Bi (Jonah 25Bi) | DRSC03434 | 1.10e5 | 1.25e5 | 1.64e6 | 1.12e6 |
| Jon25Bi (Jonah 25Bi) | DRSC25181 | 6.86e5 | 6.33e5 | 4.47e5 | 5.26e5 |
| CG30395 | DRSC03896 | 3.46e5 | 3.96e5 | 4.54e5 | 2.96e5 |
| Hs3st-A (Heparan sulfate 3-O sulfotransferase-A) | DRSC06508 | 1.38e5 | 2.10e5 | 8.64e5 | 1.19e6 |
| Hs3st-A (Heparan sulfate 3-O sulfotransferase-A) | DRSC06509 | 84548 | 1.30e5 | 1.72e6 | 1.58e6 |
| Hs3st-A (Heparan sulfate 3-O sulfotransferase-A) | DRSC30014 | 5.38e5 | 2.93e5 | 1.34e6 | 1.32e6 |
| CG18081 | DRSC10294 | 2.14e5 | 1.41e5 | 1.85e6 | 1.78e6 |
| CG18081 | DRSC25758 | 7.02e5 | 7.46e5 | 7.94e5 | 8.50e5 |
| CG9706 | DRSC11095 | 36304 | 35399 | 3.61e5 | 4.00e5 |
| Aplip1 (APPL-interacting protein 1) | DRSC08697 | 87061 | 1.08e5 | 1.30e6 | 1.74e6 |
| Aplip1 (APPL-interacting protein 1) | DRSC21587 | 4.85e5 | 6.14e5 | 1.29e6 | 1.94e6 |
| Aplip1 (APPL-interacting protein 1) | DRSC26312 | 3.13e5 | 2.64e5 | 6.53e5 | 5.68e5 |
| CG18662 | DRSC02691 | 2.44e5 | 2.61e5 | 1.44e6 | 1.42e6 |
| CG30375 | DRSC06834 | 2.11e5 | 2.04e5 | 1.49e6 | 1.31e6 |
| CG3552 | DRSC10370 | 1.44e5 | 1.48e5 | 2.07e6 | 1.87e6 |
| ND-42 (NADH dehydrogenase (ubiquinone) 42 kDa subunit) | DRSC16754 | 81921 | 69582 | 4.57e5 | 4.49e5 |
| ND-42 (NADH dehydrogenase (ubiquinone) 42 kDa subunit) | DRSC26843 | 5.36e5 | 4.89e5 | 9.07e5 | 8.60e5 |
| geminin | DRSC04984 | 1.00e5 | 1.07e5 | 1.70e6 | 1.33e6 |
| geminin | DRSC29794 | 1.55e5 | 1.68e5 | 6.81e5 | 7.13e5 |
| CG10877 | DRSC14274 | 2.17e5 | 2.93e5 | 2.69e6 | 3.00e6 |
| CG6980 | DRSC16162 | 1.63e5 | 1.23e5 | 6.69e5 | 5.98e5 |
| CG6980 | DRSC29355 | 9.33e5 | 1.00e6 | 1.15e6 | 1.15e6 |

3 of these entries, reformatted:
ND-42 (NADH dehydrogenase (ubiquinone) 42 kDa subunit) [DRSC16754]
- firefly reporter light, replicate 1: 81921
- firefly reporter light, replicate 2: 69582
- Renilla control light, replicate 1: 4.57e5
- Renilla control light, replicate 2: 4.49e5

ND-42 (NADH dehydrogenase (ubiquinone) 42 kDa subunit) [DRSC26843]
- firefly reporter light, replicate 1: 5.36e5
- firefly reporter light, replicate 2: 4.89e5
- Renilla control light, replicate 1: 9.07e5
- Renilla control light, replicate 2: 8.60e5

geminin [DRSC04984]
- firefly reporter light, replicate 1: 1.00e5
- firefly reporter light, replicate 2: 1.07e5
- Renilla control light, replicate 1: 1.70e6
- Renilla control light, replicate 2: 1.33e6
